No constants are given. Whether binding was seen depends on the method and setting. Some binding calls cover weakened binding; strength is not graded here. Tags and fused reporters may be left off the sequences shown.

The chains behind the UniProt entries cited, without tags or fusion partners. Residues count along the entry.
UniProt P08581, residues 25-929: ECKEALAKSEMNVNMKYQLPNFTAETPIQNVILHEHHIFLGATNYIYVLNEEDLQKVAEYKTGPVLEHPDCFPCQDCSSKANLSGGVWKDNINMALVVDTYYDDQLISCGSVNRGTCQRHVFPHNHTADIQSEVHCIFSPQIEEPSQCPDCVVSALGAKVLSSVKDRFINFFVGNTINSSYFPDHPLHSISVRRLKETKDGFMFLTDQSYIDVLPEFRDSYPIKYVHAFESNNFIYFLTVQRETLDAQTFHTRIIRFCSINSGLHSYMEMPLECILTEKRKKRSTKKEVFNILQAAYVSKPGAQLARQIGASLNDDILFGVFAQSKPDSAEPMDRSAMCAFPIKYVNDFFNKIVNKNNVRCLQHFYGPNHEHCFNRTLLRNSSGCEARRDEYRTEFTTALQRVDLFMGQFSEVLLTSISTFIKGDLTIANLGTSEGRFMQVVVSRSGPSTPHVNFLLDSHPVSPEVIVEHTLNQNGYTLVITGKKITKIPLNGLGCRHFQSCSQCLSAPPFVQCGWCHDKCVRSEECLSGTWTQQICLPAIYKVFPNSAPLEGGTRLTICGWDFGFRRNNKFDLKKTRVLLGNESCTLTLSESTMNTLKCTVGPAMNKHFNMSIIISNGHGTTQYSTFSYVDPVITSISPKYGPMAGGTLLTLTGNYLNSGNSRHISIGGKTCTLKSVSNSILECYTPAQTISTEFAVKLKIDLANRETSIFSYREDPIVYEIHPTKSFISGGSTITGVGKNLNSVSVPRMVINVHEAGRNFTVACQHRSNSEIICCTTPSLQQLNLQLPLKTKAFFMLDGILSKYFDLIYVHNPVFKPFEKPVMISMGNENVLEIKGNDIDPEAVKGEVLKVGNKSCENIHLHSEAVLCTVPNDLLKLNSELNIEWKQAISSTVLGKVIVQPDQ

In the experiment the target is cMet-Ig protein (biotinylated) (UniProt P08581). Nature of the experiment: electrochemiluminescent competition assay: antibody against HGF-Ruthenium Tag binding to cMet-Ig-biotin.

B1: chimeric one-armed 5D5 antibody (Fab arm from the murine parent 5D5 antibody fused to a human Fc region) (antibody, V domains shown)
VH: QVQLQQSGPELVRPGASVKMSCRASGYTFTSYWLHWVKQRPGQGLEWIGMIDPSNSDTRFNPNFKDKATLNVDRSSNTAYMLLSSLTSADSAVYYCATYGSYVSPLDYWGQGTSVTVSS
VL: DIMMSQSPSSLTVSVGEKVTVSCKSSQSLLYTSSQKNYLAWYQQKPGQSPKLLIYWASTRESGVPDRFTGSGSGTDFTLTITSVKADDLAVYYCQQYYAYPWTFGGGTKLEIKR
In the case of B1, the binding result is “binds”.

The values are drawn from US20120082663A1.
